No constants are given. Whether binding was seen depends on the method and setting. Some results given as binding are weak or reduced against the parent protein; the word gives no strength.
Biological target: T1, human Claudin 18.2 (human) (UniProt P56856)
T1 sequence (looked up): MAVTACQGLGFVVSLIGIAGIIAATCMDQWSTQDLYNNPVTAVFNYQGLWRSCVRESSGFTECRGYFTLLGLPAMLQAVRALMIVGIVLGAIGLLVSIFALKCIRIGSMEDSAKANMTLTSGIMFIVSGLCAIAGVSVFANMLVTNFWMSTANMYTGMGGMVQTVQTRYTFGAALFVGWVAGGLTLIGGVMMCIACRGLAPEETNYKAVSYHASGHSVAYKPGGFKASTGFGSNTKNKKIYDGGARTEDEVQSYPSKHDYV
Assay: flow cytometry on cells expressing the target

binding: binds
B1: anti-Claudin 18.2 antibody 8D2 (antibody, V domains shown)
VH: QVQLKQSGPELVKPGASVKMSCKASGYTFTSYVMHWVKQKPGQGLEWIGYINPYNDGTKYNEKFKGKATLTSDKSSSTAYMELSSLTSEDSAVYYCARRGYYGPYFDYWGQGTTLTVSS
VL: DIVMTQSPSSLTVTAGEKVTMSCKSSQSLLNGGNQKNYLTWYQQKPGQPPKLLIYWASTRESGVPDRFTGSGSGTDFTLTISSVQAEDLAVYYCQNDYYYPYTFGGGTKLEIK
